From the supplement of paper PMC10849652
Some of the results follow.

Protein sequences, listed by entry. Tags and fused reporters are not part of them. Lines headed by an entry give the natural chain unless they say otherwise; changes in a name come on top.
UniProt Q9H270: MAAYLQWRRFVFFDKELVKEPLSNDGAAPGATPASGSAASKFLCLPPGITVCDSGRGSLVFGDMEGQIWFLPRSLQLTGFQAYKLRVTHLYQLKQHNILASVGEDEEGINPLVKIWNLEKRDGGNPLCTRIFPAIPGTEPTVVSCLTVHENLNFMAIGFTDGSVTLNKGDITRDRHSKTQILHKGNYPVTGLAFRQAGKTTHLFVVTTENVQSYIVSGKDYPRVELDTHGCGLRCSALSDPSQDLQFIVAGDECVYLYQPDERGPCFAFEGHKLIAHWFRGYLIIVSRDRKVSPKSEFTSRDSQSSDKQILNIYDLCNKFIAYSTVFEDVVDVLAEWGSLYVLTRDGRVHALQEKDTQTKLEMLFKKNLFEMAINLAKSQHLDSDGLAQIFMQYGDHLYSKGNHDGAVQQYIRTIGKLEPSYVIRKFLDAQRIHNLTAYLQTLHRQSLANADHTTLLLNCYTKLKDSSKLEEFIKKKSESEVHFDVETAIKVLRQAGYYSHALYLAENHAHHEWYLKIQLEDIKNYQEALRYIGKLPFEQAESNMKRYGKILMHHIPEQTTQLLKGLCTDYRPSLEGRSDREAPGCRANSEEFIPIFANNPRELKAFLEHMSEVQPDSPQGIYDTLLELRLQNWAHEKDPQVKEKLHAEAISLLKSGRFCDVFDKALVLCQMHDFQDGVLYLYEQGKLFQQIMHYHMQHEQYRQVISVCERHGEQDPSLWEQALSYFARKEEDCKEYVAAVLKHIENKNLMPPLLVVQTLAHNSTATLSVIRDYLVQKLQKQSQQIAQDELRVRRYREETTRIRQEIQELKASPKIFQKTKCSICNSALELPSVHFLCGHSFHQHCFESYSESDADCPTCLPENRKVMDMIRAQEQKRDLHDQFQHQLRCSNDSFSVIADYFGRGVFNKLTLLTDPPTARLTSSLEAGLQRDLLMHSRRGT
UniProt Q96JG6: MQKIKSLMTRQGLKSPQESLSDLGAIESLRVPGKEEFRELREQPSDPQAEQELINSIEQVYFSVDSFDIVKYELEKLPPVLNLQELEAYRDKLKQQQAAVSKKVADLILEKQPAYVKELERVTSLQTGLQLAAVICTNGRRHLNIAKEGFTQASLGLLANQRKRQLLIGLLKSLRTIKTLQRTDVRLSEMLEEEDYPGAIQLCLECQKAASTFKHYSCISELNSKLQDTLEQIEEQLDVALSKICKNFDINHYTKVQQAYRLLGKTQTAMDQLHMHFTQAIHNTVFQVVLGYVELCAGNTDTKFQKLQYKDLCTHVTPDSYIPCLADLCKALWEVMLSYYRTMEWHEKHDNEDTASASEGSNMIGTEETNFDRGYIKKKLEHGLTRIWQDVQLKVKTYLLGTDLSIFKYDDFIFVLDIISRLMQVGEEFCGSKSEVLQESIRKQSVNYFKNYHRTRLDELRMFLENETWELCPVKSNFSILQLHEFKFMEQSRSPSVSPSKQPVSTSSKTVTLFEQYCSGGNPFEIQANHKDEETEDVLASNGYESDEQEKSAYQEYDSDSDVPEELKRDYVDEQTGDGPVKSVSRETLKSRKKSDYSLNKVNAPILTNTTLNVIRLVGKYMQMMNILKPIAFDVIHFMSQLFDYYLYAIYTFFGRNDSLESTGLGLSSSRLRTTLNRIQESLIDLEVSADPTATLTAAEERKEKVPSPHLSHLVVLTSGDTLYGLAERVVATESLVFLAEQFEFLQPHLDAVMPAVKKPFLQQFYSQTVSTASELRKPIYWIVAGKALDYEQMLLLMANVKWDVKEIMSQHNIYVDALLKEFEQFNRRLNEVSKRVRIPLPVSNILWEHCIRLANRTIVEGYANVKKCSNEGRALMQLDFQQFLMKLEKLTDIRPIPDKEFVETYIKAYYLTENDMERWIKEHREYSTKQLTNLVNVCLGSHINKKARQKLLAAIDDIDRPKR
UniProt Q96S55: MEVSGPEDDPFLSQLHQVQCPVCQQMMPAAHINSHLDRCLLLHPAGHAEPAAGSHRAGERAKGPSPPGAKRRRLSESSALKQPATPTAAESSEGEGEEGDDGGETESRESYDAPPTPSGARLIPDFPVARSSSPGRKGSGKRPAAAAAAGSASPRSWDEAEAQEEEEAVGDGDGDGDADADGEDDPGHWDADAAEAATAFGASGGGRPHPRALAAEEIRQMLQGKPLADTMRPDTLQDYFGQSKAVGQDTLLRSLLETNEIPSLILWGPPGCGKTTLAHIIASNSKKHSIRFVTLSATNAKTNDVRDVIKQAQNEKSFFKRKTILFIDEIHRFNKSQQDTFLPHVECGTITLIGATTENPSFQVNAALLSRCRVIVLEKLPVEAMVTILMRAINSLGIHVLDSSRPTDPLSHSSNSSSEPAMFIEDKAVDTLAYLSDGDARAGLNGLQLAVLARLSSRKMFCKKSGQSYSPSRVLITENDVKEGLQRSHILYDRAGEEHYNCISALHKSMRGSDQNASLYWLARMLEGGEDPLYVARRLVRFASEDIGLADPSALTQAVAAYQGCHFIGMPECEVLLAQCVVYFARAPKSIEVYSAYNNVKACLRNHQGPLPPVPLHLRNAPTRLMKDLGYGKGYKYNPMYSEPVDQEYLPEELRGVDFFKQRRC
UniProt Q6PJI9: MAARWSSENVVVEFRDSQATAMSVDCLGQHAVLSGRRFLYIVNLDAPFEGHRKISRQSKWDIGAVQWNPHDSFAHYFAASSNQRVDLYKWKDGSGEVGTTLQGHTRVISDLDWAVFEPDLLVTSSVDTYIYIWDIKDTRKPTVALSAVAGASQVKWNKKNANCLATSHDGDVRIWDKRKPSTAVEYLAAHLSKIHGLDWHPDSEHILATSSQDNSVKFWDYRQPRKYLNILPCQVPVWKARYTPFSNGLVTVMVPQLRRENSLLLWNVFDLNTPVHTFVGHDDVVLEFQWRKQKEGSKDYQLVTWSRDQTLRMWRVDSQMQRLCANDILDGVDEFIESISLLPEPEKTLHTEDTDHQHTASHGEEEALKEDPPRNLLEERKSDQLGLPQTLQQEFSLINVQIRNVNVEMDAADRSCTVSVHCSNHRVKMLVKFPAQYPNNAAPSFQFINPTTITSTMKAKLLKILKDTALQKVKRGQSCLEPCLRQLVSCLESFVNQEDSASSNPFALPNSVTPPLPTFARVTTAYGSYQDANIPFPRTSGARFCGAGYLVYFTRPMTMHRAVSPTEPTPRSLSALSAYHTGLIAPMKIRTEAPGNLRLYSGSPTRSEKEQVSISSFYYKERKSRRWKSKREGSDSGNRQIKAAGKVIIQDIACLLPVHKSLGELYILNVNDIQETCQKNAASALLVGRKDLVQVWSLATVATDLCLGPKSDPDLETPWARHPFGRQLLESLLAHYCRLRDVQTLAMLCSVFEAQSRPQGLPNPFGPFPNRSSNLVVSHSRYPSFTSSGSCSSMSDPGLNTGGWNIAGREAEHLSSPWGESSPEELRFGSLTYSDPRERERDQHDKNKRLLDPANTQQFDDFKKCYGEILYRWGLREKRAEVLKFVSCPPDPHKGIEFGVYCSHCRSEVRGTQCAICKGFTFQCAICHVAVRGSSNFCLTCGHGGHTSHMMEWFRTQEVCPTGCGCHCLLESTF
UniProt P23381: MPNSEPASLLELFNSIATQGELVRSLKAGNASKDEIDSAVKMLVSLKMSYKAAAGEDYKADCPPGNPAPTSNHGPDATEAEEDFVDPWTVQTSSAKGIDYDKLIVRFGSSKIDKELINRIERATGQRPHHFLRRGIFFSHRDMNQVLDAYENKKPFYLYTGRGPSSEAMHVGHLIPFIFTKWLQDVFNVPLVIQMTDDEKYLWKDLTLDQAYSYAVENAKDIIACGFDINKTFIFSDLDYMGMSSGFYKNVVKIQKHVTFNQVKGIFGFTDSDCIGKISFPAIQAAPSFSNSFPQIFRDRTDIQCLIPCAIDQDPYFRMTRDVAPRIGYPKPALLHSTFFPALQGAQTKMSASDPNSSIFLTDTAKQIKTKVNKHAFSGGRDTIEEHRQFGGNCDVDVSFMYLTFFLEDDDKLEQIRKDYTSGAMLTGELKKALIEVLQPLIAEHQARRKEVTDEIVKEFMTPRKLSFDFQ
UniProt Q9P253: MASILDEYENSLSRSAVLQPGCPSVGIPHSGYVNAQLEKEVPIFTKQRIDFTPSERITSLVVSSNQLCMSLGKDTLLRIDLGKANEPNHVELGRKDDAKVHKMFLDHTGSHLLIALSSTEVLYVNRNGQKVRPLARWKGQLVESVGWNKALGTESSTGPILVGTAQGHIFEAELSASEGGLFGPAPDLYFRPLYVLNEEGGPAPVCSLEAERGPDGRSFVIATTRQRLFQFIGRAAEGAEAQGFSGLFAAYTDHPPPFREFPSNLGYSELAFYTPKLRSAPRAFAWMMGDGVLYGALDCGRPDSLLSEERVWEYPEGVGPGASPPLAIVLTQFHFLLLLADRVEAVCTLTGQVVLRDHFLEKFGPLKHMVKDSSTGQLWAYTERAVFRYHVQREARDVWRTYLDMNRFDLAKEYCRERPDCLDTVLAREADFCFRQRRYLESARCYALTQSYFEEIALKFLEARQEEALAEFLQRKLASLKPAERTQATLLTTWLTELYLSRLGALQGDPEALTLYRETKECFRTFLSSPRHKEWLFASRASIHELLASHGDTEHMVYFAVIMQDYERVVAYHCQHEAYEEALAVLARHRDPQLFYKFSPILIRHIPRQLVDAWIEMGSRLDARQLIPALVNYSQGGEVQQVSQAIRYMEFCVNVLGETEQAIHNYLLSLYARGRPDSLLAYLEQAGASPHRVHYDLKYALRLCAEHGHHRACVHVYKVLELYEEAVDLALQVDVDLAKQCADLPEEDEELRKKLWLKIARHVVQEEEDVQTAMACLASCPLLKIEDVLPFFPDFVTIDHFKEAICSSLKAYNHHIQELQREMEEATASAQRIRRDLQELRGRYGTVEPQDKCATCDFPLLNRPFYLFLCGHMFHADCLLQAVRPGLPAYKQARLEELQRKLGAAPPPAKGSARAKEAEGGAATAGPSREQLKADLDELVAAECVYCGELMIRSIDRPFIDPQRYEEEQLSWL
UniProt O43379: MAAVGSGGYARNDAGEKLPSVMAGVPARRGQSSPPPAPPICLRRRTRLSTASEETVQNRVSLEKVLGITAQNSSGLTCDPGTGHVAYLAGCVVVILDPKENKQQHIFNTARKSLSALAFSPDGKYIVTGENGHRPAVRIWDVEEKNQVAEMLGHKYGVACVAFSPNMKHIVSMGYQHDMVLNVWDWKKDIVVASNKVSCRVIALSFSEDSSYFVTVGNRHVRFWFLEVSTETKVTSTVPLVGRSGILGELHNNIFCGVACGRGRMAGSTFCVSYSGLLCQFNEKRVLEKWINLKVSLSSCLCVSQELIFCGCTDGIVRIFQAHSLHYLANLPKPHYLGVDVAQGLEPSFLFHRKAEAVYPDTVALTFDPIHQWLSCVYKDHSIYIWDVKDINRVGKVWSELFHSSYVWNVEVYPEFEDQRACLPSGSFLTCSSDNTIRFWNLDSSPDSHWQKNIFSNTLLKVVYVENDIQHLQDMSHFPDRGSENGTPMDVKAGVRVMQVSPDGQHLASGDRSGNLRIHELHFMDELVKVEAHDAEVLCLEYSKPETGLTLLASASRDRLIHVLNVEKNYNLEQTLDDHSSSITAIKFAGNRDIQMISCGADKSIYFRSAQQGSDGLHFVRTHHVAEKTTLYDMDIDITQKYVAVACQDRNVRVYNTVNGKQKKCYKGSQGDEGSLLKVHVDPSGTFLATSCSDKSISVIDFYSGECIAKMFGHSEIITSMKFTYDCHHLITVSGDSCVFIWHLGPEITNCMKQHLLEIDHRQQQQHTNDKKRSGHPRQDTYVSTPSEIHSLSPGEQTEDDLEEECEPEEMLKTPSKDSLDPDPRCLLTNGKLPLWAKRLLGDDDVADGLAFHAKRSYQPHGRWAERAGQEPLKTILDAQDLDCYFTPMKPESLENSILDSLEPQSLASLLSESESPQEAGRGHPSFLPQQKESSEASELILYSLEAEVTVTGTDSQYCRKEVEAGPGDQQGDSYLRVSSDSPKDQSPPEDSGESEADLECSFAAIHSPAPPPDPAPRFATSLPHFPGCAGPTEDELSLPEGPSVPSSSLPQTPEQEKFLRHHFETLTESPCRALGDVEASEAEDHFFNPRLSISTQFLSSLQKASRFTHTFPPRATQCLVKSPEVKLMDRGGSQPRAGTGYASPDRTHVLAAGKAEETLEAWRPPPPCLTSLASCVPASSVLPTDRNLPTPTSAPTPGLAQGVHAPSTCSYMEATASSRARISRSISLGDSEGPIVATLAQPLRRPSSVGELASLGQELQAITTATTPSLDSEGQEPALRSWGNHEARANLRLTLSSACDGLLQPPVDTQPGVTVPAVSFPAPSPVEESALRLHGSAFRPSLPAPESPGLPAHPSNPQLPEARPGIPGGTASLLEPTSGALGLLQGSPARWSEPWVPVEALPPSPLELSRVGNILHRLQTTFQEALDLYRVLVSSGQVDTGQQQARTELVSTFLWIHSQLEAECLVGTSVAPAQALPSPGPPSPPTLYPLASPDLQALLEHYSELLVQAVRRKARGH

Assays:
Test in all cases: log2 fold change, soluble protein after heating vs DMSO (PISA); higher = thermal stabilisation; K562 cells, 10 uM, 30 min; active = over 0.2 and 3.5 SD of the protein, either way, in both replicates (recomputed)
[1] = compound: C1=CC=C(C=C1)[C@H](COC2=CC3=C(C=C2)NC(=O)N3)NC(=O)C4=CC=CN(C4=O)CC5=CC(=C(C=C5)F)F
Outline: (§1)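 Quantification of soluble protein used TMTpro 16plex LC-MS/MS, with channel sums equalised. Samples were the supernatant after 21,000xg for 90 min of pooled aliquots from K562 cells (2×10^6 cells/mL) treated with 10 μM compound for 30 min, heated for 3 min over 48°C-58°C, and extracted in PBS with 0.5% NP-40 at 4°C. Values, from duplicates, describe thermal stability against control samples on a log2 fold-change scale.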

[2] = compound: CC1=C(SC2=C1C(=N[C@H](C3=NN=C(N32)C)CC(=O)N)C4=CC=C(C=C4)Cl)C
Outline: as §1

[3] = compound: CC1=C2C(=CC=C1)N=C(N(C2=O)C3=CC=CC=C3C)CN4C=NC5=C(N=CN=C54)N
Outline: as §1

[4] = compound: Cc1sc2c(c1C)C(c1ccc(Cl)cc1)=N[C@@H](CC(=O)OC(C)(C)C)c1nnc(C)n1-2
Outline: as §1

[5] = compound: c1ccc([C@@H]2C[C@H]2NC2CCNCC2)cc1
Outline: as §1

Measured: log2 fold change

VPS51 (UniProt Q9UID3)
inactive: [1] -0.047 | [2] 0.026 | [3] 0.047 | [4] -0.048 | [5] -0.044

WIZ isoform 3 (UniProt O95785)
inactive: [1] -0.054 | [2] -0.025 | [3] -0.101 | [4] 0.139 | [5] -0.012

WASF2 (UniProt Q9Y6W5)
inactive: [1] 0.023 | [2] 0.016 | [3] 0.064 | [4] 0.024 | [5] 0.021

VPS28 (UniProt Q9UK41)
inactive: [1] -0.075 | [2] 0.023 | [3] 0.064 | [4] 0.011 | [5] -0.01

WARS1 (UniProt G3V227)
inactive: [1] 0.09 | [2] -0.089 | [3] 0.042 | [4] 0.333 | [5] -0.185

VPS11 (UniProt Q9H270)
inactive: [1] -0.089 | [2] 0.014 | [3] 0.118 | [4] -0.001 | [5] -0.047

VRK3 (UniProt Q8IV63)
inactive: [1] 0.034 | [2] -0.011 | [3] 0.02 | [4] -0.118 | [5] 0.032

WDR61 (UniProt Q9GZS3)
inactive: [1] -0.035 | [2] 0.04 | [3] 0.077 | [4] 0.032 | [5] 0.012

VPS50 (UniProt Q96JG6)
inactive: [1] -0.039 | [2] 0.055 | [3] 0.022 | [4] -0.013 | [5] 0.01

WDHD1 (UniProt O75717)
inactive: [1] -0.014 | [2] 0.085 | [3] 0.121 | [4] 0.002 | [5] 0.015

WDR89 (UniProt Q96FK6)
inactive: [1] 0.019 | [2] 0.093 | [3] -0.023 | [4] 0.002 | [5] 0.012

WRNIP1 (UniProt Q96S55)
inactive: [1] -0.196 | [2] 0.049 | [3] 0.12 | [4] 0.06 | [5] -0.05

VPS72 isoform 2 (UniProt Q15906)
inactive: [1] 0.123 | [2] -0.106 | [3] 0.055 | [4] 0.05 | [5] -0.013

WASH2P (UniProt Q6VEQ5)
inactive: [1] 0.015 | [2] -0.015 | [3] 0.026 | [4] 0.041 | [5] 0.027

WIPI2 (UniProt Q9Y4P8)
inactive: [1] -0.043 | [2] 0.11 | [3] 0.052 | [4] -0.074 | [5] -0.008

VPS4A (UniProt Q9UN37)
inactive: [1] -0.015 | [2] 0.081 | [3] 0.015 | [4] 0.008 | [5] -0.025

WDR59 (UniProt Q6PJI9)
inactive: [1] 0.047 | [2] 0.006 | [3] 0.087 | [4] 0.003 | [5] 0.127

WDR43 (UniProt Q15061)
inactive: [1] 0.026 | [2] 0.027 | [3] 0.009 | [4] -0.009 | [5] 0.001

VWA5A (UniProt O00534)
inactive: [1] 0.018 | [2] 0 | [3] 0.051 | [4] -0.036 | [5] -0.116

VPS41 (UniProt P49754)
inactive: [1] -0.028 | [2] 0.06 | [3] 0.152 | [4] -0.017 | [5] -0.052

Random excerpt: two records from the list.
VPS51 (UniProt Q9UID3)
inactive: [1] -0.047 | [2] 0.026 | [3] 0.047 | [4] -0.048 | [5] -0.044

VPS28 (UniProt Q9UK41)
inactive: [1] -0.075 | [2] 0.023 | [3] 0.064 | [4] 0.011 | [5] -0.01

(next part)

VDAC2 (UniProt P45880)
inactive: [1] 0.031 | [2] 0.042 | [3] 0.039 | [4] -0.012 | [5] 0.021

VTI1A (UniProt Q96AJ9)
inactive: [1] 0.032 | [2] 0.009 | [3] 0.091 | [4] -0.023 | [5] 0.07

VPS45 (UniProt Q9NRW7)
inactive: [1] 0.104 | [2] -0.013 | [3] 0.076 | [4] -0.057 | [5] -0.052

WARS (UniProt P23381)
inactive: [1] 0.032 | [2] 0.013 | [3] 0.015 | [4] -0.018 | [5] -0.03

WDR45 (UniProt Q9Y484)
inactive: [1] -0.029 | [2] 0.066 | [3] -0.008 | [4] -0.051 | [5] 0.035

VPS18 (UniProt Q9P253)
inactive: [1] 0.014 | [2] -0.052 | [3] -0.03 | [4] -0.03 | [5] 0.004

WDR62 isoform 4 (UniProt O43379)
inactive: [1] 0.007 | [2] 0.027 | [3] 0.031 | [4] 0.004 | [5] 0.009

VNN1 (UniProt O95497)
inactive: [2] 0.056 | [5] -0.02
